# Laboratory results as given in the supplement of paper PMC12578635.
# This is one part of the list. Rule as the data show it: active = 150% or more and inactive = the rest. Most values come without repeats; read them as rough.
# System: Staphylococcus aureus JE2-lux inside RAW 264.7 macrophages
# Experiment: intracellular bacterial bioluminescence relative to DMSO vehicle; higher = higher intracellular bacterial metabolic activity
# Conditions: 10 µM; treatment time 4 h; gentamicin 50 µg/ml
row,SMILES,intracellular bacterial bioluminescence
1,COCCCNc1nc2c(c(=O)[nH]c(=O)n2C)n1CC(=O)c1ccccc1,inactive: 102%
2,CCCCN(C)C(=O)CSc1nccnc1N1CCN(c2cccc(C)c2C)CC1,inactive: 32.3%
3,CCn1cc(NC(=O)Nc2nccs2)c2ccccc21,inactive: 123%
4,COc1cccc(OC(C)C(=O)Nc2nc3c(s2)CCc2c-3cnn2C)c1 (stereo not drawn),inactive: 85.5%
5,COc1ccc(C2c3cccn3CCN2C(=O)Nc2ccc(C)c(C)c2)cc1 (stereo not drawn),inactive: 83.5%
6,Nc1c(C(=O)c2ccccc2)sc2nc3cc4c(cc3cc12)OCO4,inactive: 41.3%
7,O=S(=O)(c1ccc(N2CCC(CNc3ncccn3)CC2)cc1)N1CCCC1,inactive: 18%
8,COc1ccccc1NC(=O)CSc1ncnc2c1sc1nc3cc(C)ccc3cc12,inactive: 104%
9,Cn1c(=O)c2c(SCc3ccc(Cl)cc3Cl)ccnc2n(C)c1=O,inactive: 106%
10,O=C(NCCC1CCCCN1S(=O)(=O)c1ccccc1)C(=O)NCc1cccnc1 (stereo not drawn),inactive: 77.9%
11,COc1cccc(/C=N/NC(=O)c2cc3cc([N+](=O)[O-])ccc3s2)c1O,inactive: 110%
12,O=C(c1ccc(Cn2c(=O)c(=O)[nH]c3cccnc32)cc1)N1CCN(c2ncccn2)CC1,inactive: 101%
13,C=CCNC(=O)CCCCCn1c(=O)[nH]c2ccsc2c1=O,inactive: 101%
14,[N-]=[N+]=NC1CC(CO)OC1n1ccc(=O)[nH]c1=O (stereo not drawn),inactive: 95.5%
15,O=C(Nc1cc(C(F)(F)F)ccc1Cl)c1cnc2n(c1=O)CCS2,inactive: 113%
16,CC1CCc2c(sc(NC(=O)CN(C(=O)c3ccco3)C3CCCCC3)c2C(N)=O)C1 (stereo not drawn),inactive: 62.6%
17,CCc1ccc(NC(=O)c2cnn3c(N)c(C#N)c(-c4ccc(Br)cc4)nc23)cc1,inactive: 97.3%
18,CC(=O)c1ccc(Nc2nc(N3CCOCC3)nc(N3CCOCC3)n2)cc1,inactive: 78.1%
19,Cc1ccsc1C1C2=C(COC2=O)Nc2c1c(=O)[nH]c(=O)n2CC(C)C (stereo not drawn),inactive: 116%
20,C/C(=N\N)c1c(-c2ccccc2)c2cc(C)ccc2[nH]c1=O,inactive: 80.4%

row,SMILES,intracellular bacterial bioluminescence
1,O=C(N/N=C/c1csc([N+](=O)[O-])c1)c1cc2ccccc2cc1O,inactive: 5.12%
2,CCOCCCNC(=O)C(=O)c1cn(CC(=O)N2CCCCCC2)c2ccccc12,inactive: 105%
3,COc1ccc(NC(=O)CSc2nccn(-c3ccc(C)c(F)c3)c2=O)c(OC)c1,inactive: 124%
4,COc1cc2nc(NC(=O)c3ccc(C(C)=O)cc3)sc2cc1OC,inactive: 88.2%
5,O=C(NCCS(=O)c1c(-c2ccc(F)cc2)[nH]c2ccccc12)C(=O)c1c[nH]c2ccccc12 (stereo not drawn),inactive: 66.6%
6,Cc1ccc(Nc2nc(NCCOCCO)nc(N)c2[N+](=O)[O-])cc1C,inactive: 16.6%
7,Cc1ccc(-n2nc(C)c3c(C)cc(=O)[nH]c32)cc1C,inactive: 112%
8,O=C1C2C3CC(C2C(=O)N1c1ccc(Cl)cc1)C1C(c2cccnc2)c2sc(=O)[nH]c2SC31 (stereo not drawn),inactive: 107%
9,CSc1ccccc1NS(=O)(=O)c1cc2c3c(c1)CCC(=O)N3CCC2,inactive: 82.1%
10,COC(=O)c1ccc(NC(=O)CSc2ncc(CO)n2Cc2ccc(F)cc2)cc1,inactive: 78.9%
11,Cc1cc(C)c2nc(NC(=O)CSc3ccccc3)sc2c1,inactive: 75.6%
12,O=C1C(NS(=O)(=O)c2ccccc2)=C/C(=N\S(=O)(=O)c2ccc(F)cc2)c2ccccc21,inactive: 138%
13,CCOc1ccccc1Nc1ncnc2c1c(C)c(C)n2-c1cccc(F)c1,inactive: 117%
14,CNc1n[nH]c(N)c1-c1nc(-c2ccccc2C)no1,inactive: 92.5%
15,CC1=NN(Cc2ccccc2C)c2nc3c(c(=O)n(C)c(=O)n3C)n2C1C (stereo not drawn),inactive: 101%
16,COc1cccc(C2C(C(=O)c3ccncc3)=C(O)C(=O)N2CCCN2CCOCC2)c1 (stereo not drawn),inactive: 93.3%
17,O=C(Nn1c(C2CCC2)nc2ccccc2c1=O)c1ccc(-c2ccccc2)cc1,inactive: 95.2%
18,CC(=O)Nc1cc2nc(C)n(Cc3ccccc3[N+](=O)[O-])c2nc1C,inactive: 110%
19,Cc1ccc(C)c(NS(=O)(=O)c2ccc3[nH]c(=O)cc(C)c3c2)c1,inactive: 115%
20,Cc1ccnc(N2CCCC(C(=O)NCc3ccc(Cl)cc3)C2)n1 (stereo not drawn),inactive: 87.9%

row,SMILES,intracellular bacterial bioluminescence
1,COCCOC(=O)c1c(C)oc2cc(Br)c(OCC(N)=O)cc12,inactive: 91.5%
2,O=C(Nc1ccc2c(c1)CCC2)C1CCN(C(=O)Nc2ccc(Cl)cc2)CC1,inactive: 50.9%
3,O=[N+]([O-])c1cccc(NC(c2ccco2)c2ccc3cccnc3c2O)c1 (stereo not drawn),inactive: 70.3%
4,O=C(Nc1c(-c2ccccc2)nc2ccccn12)c1cccc([N+](=O)[O-])c1,inactive: 82.5%
5,COc1cc(NC(=O)Cn2cccc2-c2nc(-c3ccccc3)cs2)cc(OC)c1,inactive: 96.1%
6,Cc1c(-c2cc(C(=O)O)c3cc(Br)ccc3n2)nnn1-c1ccccc1,inactive: 118%
7,CCOC(=O)Cn1cnc2nn(-c3ccccc3)cc2c1=O,active: 214%
8,CCS(=O)(=O)c1ccc(C(=O)Nc2ccc3sc(C)nc3c2)cc1,inactive: 109%
9,CCN(CC)C(=O)Cn1cc(C(=O)C(=O)NCc2ccc3c(c2)OCO3)c2ccccc21,inactive: 124%
10,O=C(NCCn1nnn(-c2ccccc2)c1=O)c1ccc(=O)[nH]n1,inactive: 101%
11,COc1ccc(/C=C2\Oc3c(ccc(O)c3CN3CCCC3)C2=O)c(OC)c1,inactive: 114%
12,COC(=O)c1ccc(C(=O)NC(=S)Nc2sc3c(c2C#N)CCCCC3)cc1,inactive: 105%
13,Nc1cc(Cl)c([N+](=O)[O-])cc1OCc1ccccc1,inactive: 49.9%
14,O=C(Oc1c(CN2CCOCC2)cc(Cl)c2cccnc12)c1cccc([N+](=O)[O-])c1,inactive: 107%
15,Cc1ccc(CSc2oc(-c3ccco3)nc2S(=O)(=O)c2ccccc2)cc1,inactive: 125%
16,COc1ccc(-c2nc3sc(C)nn3c2NC2CCCCC2)cc1,inactive: 106%
17,COc1cccc(NCc2nc3[nH]c(C)c(Cc4ccccc4)c(=O)n3n2)c1,inactive: 91.8%
18,COC(=O)NC(=O)c1c(NC(=O)c2cc3ccccc3oc2=O)sc(C)c1C,inactive: 81%

# Random excerpt: 4 compounds from above, in no set order.
row,SMILES,intracellular bacterial bioluminescence
9,CCN(CC)C(=O)Cn1cc(C(=O)C(=O)NCc2ccc3c(c2)OCO3)c2ccccc21,inactive: 124%
13,Nc1cc(Cl)c([N+](=O)[O-])cc1OCc1ccccc1,inactive: 49.9%
14,O=C(Oc1c(CN2CCOCC2)cc(Cl)c2cccnc12)c1cccc([N+](=O)[O-])c1,inactive: 107%
1,COCCOC(=O)c1c(C)oc2cc(Br)c(OCC(N)=O)cc12,inactive: 91.5%
